Patent US20040024178A1 (priority 1999, published 2004)
*: point of attachment. Decanoyl = CCCCCCCCCC(=O)*

What was measured:
[1] = general procedure: Fmoc solid-phase peptide synthesis; PEG-PS; TBTU/HOBt/DIPEA; HBTU/HOBt/DIPEA; conditions: whole synthesis, scale 0.0760 mmol
[2] = general procedure: Fmoc solid-phase peptide synthesis; Wang; TBTU/HOBt/DIPEA; HBTU/HOBt/DIPEA; conditions: whole synthesis, scale 0.0228 mmol

Substance | crude mass [1] [mg] | crude mass [2] [mg]
Ac-LLLTNTAKAASKIDD-OH | 99.3 | –
Decanoyl-LTNTAKAESKIDD-OH | – | 37.1
